Results published in PubChem BioAssay AID1508600 (Functional Genomics Laboratory (NCATS/FGL), 2020).
In all, about 53,000 sequences went through this assay and about 3,700 (7%) were called active.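 Rule for the calls: active = gene knockdowns whose robust z-score for IL-1 alpha signal is at least 2 or at most -2, so actives lie on both sides; inactive = the rest.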 The list shows a part of the results.

Assay: Components of the Cytosolic LPS Sensing Pathway: Gene Identification via Genome-wide siRNA Screen;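 note: robust z of the log signal after scaling to non-targeting control siRNA wells of the plate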
Settings: RAW264.7 macrophages, IL-1a HTRF, actives lie on both sides, screened at 100 nM (by protocol), cells primed 5 h with Pam3CSK4 first
Summary of the method: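 Cells (RAW264.7, 1×10^4 per well) were transfected with siRNA at 100 nM and cultured 48h at 37 degrees C. Pam3CSK4 was added for 5 hours; LipidA transfection followed for 24 hour. IL-1a was then measured by HTRF.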
In the case of GGGCAAAAGUACUUUGACUTT against Ensa, the z-score was active: 2.2.
In the case of GGAAAAAGCGGUGACCAACTT against Ndufs2, the z-score was inactive: 0.341.
In the case of GGAGAAAGGAACUGAAAGUTT against Msrb3, the z-score was inactive: 0.139.
In the case of GGACAACGAGUGUCUGGGUTT against Cx3cr1, the z-score was active: 4.8.
For GGUACAGGUUGACCAAACUTT against Atp6v1e2, the z-score was inactive: -1.58.
With CCUGGACAUAACCAAUGUATT against Glrp1 the z-score was inactive: 1.5.
With CCAGAUUAUGACAAAGCGUTT against Glyat the z-score was inactive: -0.0538.
In the case of GGUCUUCCUUCCAGUGUUCTT against Slc5a8, the z-score was inactive: -0.808.
For GGGACAUUGCUCAAGAUUATT against Ankrd54, the z-score was inactive: 0.582.
With CCUGGAUGCAGGUUAAGCUTT against Dppa5a the z-score was inactive: -0.817.
In the case of CCAGCCAGACUGAAAAAGCTT against Stmnd1, the z-score was inactive: -0.652.
For GCUGCUAUGAGAGAGUUUUTT against Serpind1, the z-score was active: 2.18.
In the case of CGGCCUACAUCUUAGUGGUTT against Cd151, the z-score was inactive: -0.757.
For GCUUAAGCGACUUCAUUGCTT against Gimap7, the z-score was inactive: 1.19.
For GGAAAAUGUUUUACCAAUGTT against Rspry1, the z-score was inactive: -0.102.
With GGAAAGAAGGUGAACAACATT against Phax the z-score was inactive: 1.96.
In the case of GGUGGAAGGAAAGAGACCUTT against Gimap7, the z-score was inactive: 0.472.
With GGUUACAGAGAGACAUCAUTT against Cdk5rap2 the z-score was inactive: 0.942.
With GCCUUCAGUCCUAGAAACCTT against Lrrk1 the z-score was inactive: 0.177.
With “CCAGAUCCUAUCUUUCGAGTT against 2610318N02Rik” the z-score was inactive: -0.221.
With GGCACCAUGUACCAAAUCCTT against Fetub the z-score was inactive: 0.601.
In the case of CGAUUAUGACCGAUAUAGATT against Srsf10, the z-score was inactive: 0.626.
For GGACCUAAAGUUUCUCUCATT against Ccnc, the z-score was inactive: -0.2.
In the case of CGGACUCCAUAUGUUGAAUTT against Crtc1, the z-score was inactive: 0.414.
In the case of CCCUAAAGUCCAGAAAAUATT against Olfr1211, the z-score was inactive: -1.25.
For GGACCAAAUUACAUAGCAATT against Itgb3bp, the z-score was inactive: 0.329.
For GGUGAUUUGAACUGUGAAATT against Tmem126a, the z-score was inactive: -0.963.
In the case of GGAGAAGGCAAAGACUCUGTT against Serpina3n, the z-score was inactive: -0.546.
For “GGCUGGAUUUUAUUUUGUUTT against D830039M14Rik”, the z-score was inactive: 0.339.
In the case of CCAACCGAGUCAUUUAAGGTT against Runx2, the z-score was inactive: 0.112.
In the case of GGUAUGAUGGACUCUCUGUTT against Olfr186, the z-score was inactive: -0.485.
With CCACCCUGUGAAAAAGUCATT against Ccr3 the z-score was inactive: -1.08.
In the case of GGUGGUUAAAUGGUUUUAATT against Prkg2, the z-score was inactive: 1.98.
In the case of CCCUCUUAGGAGCUAGUGATT against Atp2b4, the z-score was inactive: -1.85.
With GGAAGCUUCACAUCAGCCATT against Hoxb5 the z-score was inactive: 0.194.
For GCCACGUCUAAGUAUCAUUTT against Col6a1, the z-score was inactive: -0.377.
For GGCCAUUCACGUUUUACUCTT against Ric8b, the z-score was inactive: -1.02.
With GGGCCACAAGAAAUGAUAUTT against Nqo2 the z-score was inactive: -0.196.
For GGGUCUGUGGGACAUUAUGTT against Serinc2, the z-score was inactive: -1.13.
With GGAAUAAAGAUCUUUGGUUTT against Vip the z-score was inactive: 0.105.
For GCAUUUGUACAUUGUGACUTT against Ces5a, the z-score was active: -2.28.
In the case of GGAUGUCGUGUGUUACUUGTT against Dgkg, the z-score was inactive: -0.0626.
For GGAGAUUGCCAUAGCUGCUTT against Mybl2, the z-score was inactive: -0.0915.
In the case of GGGCUUCUUCAGACGAACATT against Nr1i3, the z-score was inactive: 1.57.
With GCUUCUACGUAUGUGCCCATT against Tpx2 the z-score was inactive: -1.52.
With CCUUCUAGACACCAUACCCTT against Pidd1 the z-score was inactive: 0.259.
In the case of GGAGUGGAAGAAGAAGUAUTT against Agap3, the z-score was inactive: 0.177.
In the case of GGAUUCAAGGCUGUGGGAATT against Timp1, the z-score was inactive: 1.24.
For GGAGCUCAUCUACAUGCACTT against Plbd2, the z-score was inactive: -0.0217.
In the case of GGUCUUAGUAAUAUCAUCGTT against Cacng2, the z-score was inactive: -0.135.
In the case of GCAAAAGGGCUGUUUGUAGTT against Olfr1279, the z-score was inactive: -0.416.
For CCACAAGGUCUUUGGAUGATT against Pcdha8, the z-score was inactive: 1.26.
For “GGAUCACAGCGAUUAUUGATT against D630028G08Rik”, the z-score was inactive: -0.613.
With GCAAGACAUUUUGAGAAGATT against Zdhhc20 the z-score was inactive: -0.695.
For CCCACUGUCCAACUACUCATT against Rexo1, the z-score was inactive: 0.432.
In the case of “AAUUCAUCCUCAGCGUACATT against D830030K20Rik”, the z-score was inactive: 0.49.
With GAUUCAGCAUUAUUUCUGUTT against Olfr980 the z-score was inactive: 0.524.
For GGGCUUCAAGCAUAGCUUCTT against Fiz1, the z-score was inactive: -0.343.
With GGGAUCAAUGCUUAAUACATT against Zfp2 the z-score was inactive: 1.1.
For GGCCCGAAUAGCUAUGACUTT against Cldn7, the z-score was inactive: 0.817.
For “GGGUUAAGGUAGUUUCUAATT against 4930579C12Rik”, the z-score was inactive: 0.613.
With GGUACUGAAUUCAACAAACTT against Ercc6l the z-score was inactive: -0.447.
In the case of GGAGUUGGUCAAGGUGCUUTT against Parvb, the z-score was inactive: 0.863.
For AGUGAACAUCGAUCGCAUGTT against Gng8, the z-score was inactive: 0.937.
In the case of CGUAUAUCGAUGAAGAUGATT against BC016579, the z-score was inactive: -1.12.
For GGCAUAAACUACAUUUGAUTT against S1pr3, the z-score was inactive: -0.258.
For GCAGGCAUUCUCUCAAAAUTT against Tmem176a, the z-score was inactive: -0.19.
